# Experimental data as given in PMC5025042.
# Biological target: T1, Tgl-His6 (B. subtilis) (UniProt P40746)
# T1 sequence: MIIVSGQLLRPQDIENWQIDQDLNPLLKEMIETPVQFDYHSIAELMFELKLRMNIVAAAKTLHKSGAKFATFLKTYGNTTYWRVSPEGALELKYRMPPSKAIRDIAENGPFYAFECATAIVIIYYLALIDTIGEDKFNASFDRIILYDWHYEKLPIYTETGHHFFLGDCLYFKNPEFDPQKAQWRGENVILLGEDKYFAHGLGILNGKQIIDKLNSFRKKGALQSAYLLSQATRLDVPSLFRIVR
# Assay: pull-down; Ni2+-NTA beads first incubated with a lysate containing CD1234-His6 or Tgl-His6, then with a CD1231-Strep-containing extract for a further 30 min at room temperature; washed in 200 mM NaCl, 10 mM Tris-HCl pH 8.0, 10% glycerol; immunoblot with anti-Strep and anti-His6
substance,measurement,value
CD1231-Strep (Clostridium difficile (strain 630Δerm)) (enzyme),binding,no binding

# These are yes or no findings as the source states them, for the method shown. In cells and extracts the contact can be indirect. Tags and fused reporters may be left off the sequences shown.
